Results as given in PMC7359353, “Rab27a co-ordinates actin-dependent transport by controlling organelle-associated motors and track assembly proteins” (Nature Communications, 2020).
No constants are given. Whether binding was seen depends on the method and setting. In cells and extracts the contact can be indirect. Some binding calls cover weakened binding; strength is not graded here. Where a sequence is shown, tags or fusion partners need not be part of it.

By UniProt entry, the sequences of proteins in these tests, tags left out. Where a name states a change or a piece, a line headed by the entry shows the natural chain unless it says otherwise. Chains listed by the source or under a name are the forms on record and can include a tag or linker.
Myc-epitope-tagged SPIRE1 (Q08AE8-2, form named): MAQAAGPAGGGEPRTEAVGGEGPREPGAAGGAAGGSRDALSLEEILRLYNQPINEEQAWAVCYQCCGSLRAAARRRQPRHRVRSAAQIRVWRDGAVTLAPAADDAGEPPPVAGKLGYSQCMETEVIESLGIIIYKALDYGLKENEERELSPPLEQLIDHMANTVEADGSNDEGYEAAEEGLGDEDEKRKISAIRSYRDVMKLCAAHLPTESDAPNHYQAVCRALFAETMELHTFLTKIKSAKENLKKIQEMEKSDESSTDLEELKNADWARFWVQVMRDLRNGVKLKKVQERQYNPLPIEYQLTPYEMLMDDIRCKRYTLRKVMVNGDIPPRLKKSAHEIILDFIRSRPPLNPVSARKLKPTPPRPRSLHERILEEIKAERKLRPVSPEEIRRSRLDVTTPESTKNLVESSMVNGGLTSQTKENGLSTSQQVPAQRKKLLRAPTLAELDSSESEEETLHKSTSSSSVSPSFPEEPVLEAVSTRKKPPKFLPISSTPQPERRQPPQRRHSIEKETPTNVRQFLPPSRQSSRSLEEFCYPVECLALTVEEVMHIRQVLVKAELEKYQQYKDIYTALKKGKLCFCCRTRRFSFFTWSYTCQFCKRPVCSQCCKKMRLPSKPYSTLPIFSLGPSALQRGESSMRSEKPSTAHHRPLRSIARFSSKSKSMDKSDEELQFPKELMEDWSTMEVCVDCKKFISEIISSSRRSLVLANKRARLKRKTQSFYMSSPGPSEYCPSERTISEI

T1: GST-Rab27a-Q78L (UniProt P23640 1-221, Q78L)
T1 construct: Rab27a; rat Rab27a is stated only for the BiFC constructs; also called GTP-locked Rab27a-Q78L; active Rab27a-Q78L; source: E. coli Rosetta, purified (GSH-Sepharose 4B, size-exclusion chromatography)
T1 sequence (looked up): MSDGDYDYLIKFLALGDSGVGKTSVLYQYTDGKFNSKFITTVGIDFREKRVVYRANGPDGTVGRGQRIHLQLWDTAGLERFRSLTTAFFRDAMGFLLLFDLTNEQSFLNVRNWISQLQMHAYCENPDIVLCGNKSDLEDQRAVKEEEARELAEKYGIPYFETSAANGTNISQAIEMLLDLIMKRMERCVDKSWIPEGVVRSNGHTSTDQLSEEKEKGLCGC

B1: vYNE-SPIRE2 (natural protein, human, UniProt Q8WWL2 1-714, looked up)
chain: MARAGSCGGAAAGAGRPEPWELSLEEVLKAYEQPLNEEQAWAVCFQGCRGLRGSPGRRLRDTGDLLLRGDGSVGAREPEAAEPATMVVPLASSEAQTVQSLGFAIYRALDWGLDESEERELSPQLERLIDLMANNDSEDSGCGAADEGYGGPEEEEEAEGVPRSVRTFAQAMRLCAARLTDPRGAQAHYQAVCRALFVETLELRAFLARVREAKEMLQKLREDEPHLETPRAELDSLGHTDWARLWVQLMRELRRGVKLKKVQEQEFNPLPTEFQLTPFEMLMQDIRARNYKLRKVMVDGDIPPRVKKDAHELILDFIRSRPPLKQVSERRLRPLPPKQRSLHEKILEEIKQERRLRPVRGEGWAARGFGSLPCILNACSGDAKSTSCINLSVTDAGGSAQRPRPRVLLKAPTLAEMEEMNTSEEEESPCGEVTLKRDRSFSEHDLAQLRSEVASGLQSATHPPGGTEPPRPRAGSAHVWRPGSRDQGTCPASVSDPSHPLLSNRGSSGDRPEASMTPDAKHLWLEFSHPVESLALTVEEVMDVRRVLVKAEMEKFLQNKELFSSLKKGKICCCCRAKFPLFSWPPSCLFCKRAVCTSCSIKMKMPSKKFGHIPVYTLGFESPQRVSAAKTAPIQRRDIFQSLQGPQWQSVEEAFPHIYSHGCVLKDVCSECTSFVADVVRSSRKSVDVLNTTPRRSRQTQSLYIPNTRTLDFK
notes: human SPIRE2, cDNA AJ422077; also called SPIRE2 (BiFC); source: HEK293a, transfected, in living cells; not shown: enhanced Venus YFP N-terminus fragment (amino acids 1-173)

Biological target: T1, GST-Rab27a-Q78L
Assay: pull-down; 50 µg GST-Rab27a (Q78L or T23N) coupled to GSH-Sepharose 4B beads, incubated with HEK293 cell lysates 2 h at 4 °C; 25 mM Tris-HCl pH 7.4, 150 mM NaCl, 5 mM MgCl2, 10% glycerol, 0.1% Nonidet P-40; bound proteins analysed by immunoblotting (anti-c-Myc, anti-GFP); only the target purified

Row | Molecule | binding
1 | Myc-epitope-tagged SPIRE1 (from UniProt Q08AE8-2 1-742) | binds
2 | B1 | binds
